Assay [1] concerns the target human CD3 epsilon 1-26_Fc fusion protein (human). Nature of the assay: alanine scan of scFv-Fc; binding assay not named there (candidates were assessed by SPR on CD3 epsilon 1-26_Fc).
The target in assay [2] is cynomolgus monkey CD3 epsilon 1-26_Fc fusion protein (cynomolgus monkey). The description is as above.

Results are given in words; binding and its absence hold for the method and conditions named. Some binding calls cover weakened binding; strength is not graded here. Tags and fused reporters may be left off the sequences shown.

B1: SP34 H1L21 scFv-Fc with T29A in VL21 (Fc fusion, name in Kabat numbering)
VH: EVQLVESGGGLVQPGGSLRLSCAASGFTFNTYAMNWVRQAPGKGLEWVARIRSKYNNYATYYADSVKGRFTISRDDSKNTLYLQMNSLRAEDTAVYYCVRHGNFGNSYVSWFAYWGQGTTVTVSS
VL: EIVVTQSPATLSVSPGERATLSCRSSTGAVTASNYANWVQEKPGQAFRGLIGGANKRAPGVPARFSGSLSGDEATLTISSLQSEDFAVYYCALWYSNLWVFGQGTKLEIK
As to B1, the binding entry in assay [1] and in assay [2] was “binds” throughout.

B2: SP34 H1L21 scFv-Fc with S30A in VL21 (Fc fusion, name in Kabat numbering)
VH: EVQLVESGGGLVQPGGSLRLSCAASGFTFNTYAMNWVRQAPGKGLEWVARIRSKYNNYATYYADSVKGRFTISRDDSKNTLYLQMNSLRAEDTAVYYCVRHGNFGNSYVSWFAYWGQGTTVTVSS
VL: EIVVTQSPATLSVSPGERATLSCRSSTGAVTTANYANWVQEKPGQAFRGLIGGANKRAPGVPARFSGSLSGDEATLTISSLQSEDFAVYYCALWYSNLWVFGQGTKLEIK
In the case of B2, the binding result in assay [1] and in assay [2] was “binds” in each case.

The values are drawn from patent publication US20220213227A1.
